Laboratory results reported in publication PMC5095787.
These are yes or no findings as the source states them, for the method shown. Binding calls can cover weak binding; strength is not graded here. Sequences can lack the tags named with a protein. For some assays here: Binding seen in cells or lysates may run through a third protein.

Assays:
[1] = molecular target: OsGIF1 (GRF-interacting factor 1), yeast two-hybrid fusion (rice); test: two-hybrid; Matchmaker GAL4 system; pGBKT7 and pGADT7 plasmids cotransformed into yeast strain Y2H Gold; grown on SD-Leu-Trp for 3 days at 30 °C, interaction read on SD-Ade-His-Leu-Trp for 2-3 days at 30 °C
[2] = molecular target: OsGIF1 fused to cYFP for BiFC (rice); test: split reporter; BiFC: nYFP and cYFP fusions co-expressed in tobacco leaf epidermis cells by Agrobacterium-mediated infiltration; YFP seen by confocal microscopy 72 h after infiltration

Row | binding [1] | binding [2] | Binder
1 | binds | – | GLW2 (OsGRF4, growth-regulating factor 4), yeast two-hybrid fusion (protein, UniProt Q6ZIK5 1-394) MAMPYASLSPAVADHRSSPAAATASLLPFCRSTPLSAGGGGVAMGEDAPMTARWPPAAAARLPPFTAAQYEELEQQALIYKYLVAGVPVPPDLVLPIRRGLDSLAARFYNHPALGYGPYFGKKLDPEPGRCRRTDGKKWRCSKEAAPDSKYCERHMHRGRNRSRKPVETQLVAQSQPPSSVVGSAAAPLAAASNGSSFQNHSLYPAIAGSNGGGGGRNMPSSFGSALGSQLHMDNAAPYAAVGGGTGKDLRYTAYGTRSLADEQSQLITEAINTSIENPWRLLPSQNSPFPLSSYSQLGALSDLGQNTPSSLSKVQRQPLSFFGNDYAAVDSVKQENQTLRPFFDEWPKGRDSWSDLADENANLSSFSGTQLSISIPMASSDFSAASSRSTNGD
2 | – | binds | GLW2 (OsGRF4) fused to nYFP for BiFC (protein, UniProt Q6ZIK5 1-394) MAMPYASLSPAVADHRSSPAAATASLLPFCRSTPLSAGGGGVAMGEDAPMTARWPPAAAARLPPFTAAQYEELEQQALIYKYLVAGVPVPPDLVLPIRRGLDSLAARFYNHPALGYGPYFGKKLDPEPGRCRRTDGKKWRCSKEAAPDSKYCERHMHRGRNRSRKPVETQLVAQSQPPSSVVGSAAAPLAAASNGSSFQNHSLYPAIAGSNGGGGGRNMPSSFGSALGSQLHMDNAAPYAAVGGGTGKDLRYTAYGTRSLADEQSQLITEAINTSIENPWRLLPSQNSPFPLSSYSQLGALSDLGQNTPSSLSKVQRQPLSFFGNDYAAVDSVKQENQTLRPFFDEWPKGRDSWSDLADENANLSSFSGTQLSISIPMASSDFSAASSRSTNGD
